These are yes or no findings as the source states them, for the method shown. In cells and extracts the contact can be indirect. Some entries that bind do so weakly or less than the wild type. Sequences can lack the tags named with a protein.

Protein sequences, listed by entry. Tags and fused reporters are not part of them.
UniProt P61586: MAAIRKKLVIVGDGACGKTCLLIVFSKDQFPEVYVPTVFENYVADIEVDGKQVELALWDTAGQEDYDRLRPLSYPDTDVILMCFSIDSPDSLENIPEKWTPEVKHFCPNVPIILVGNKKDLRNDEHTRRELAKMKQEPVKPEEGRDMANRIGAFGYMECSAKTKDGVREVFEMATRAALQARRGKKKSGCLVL

In this experiment the target is active form of RhoA (GTP-RhoA) (human (endogenous in 16HBE)) (UniProt P61586). The experiment can be described thus: pull-down; GST-Rhotekin RBD-coated beads (EZ-Detect RhoA Activation Kit) capture GTP-RhoA from lysates of 16HBE cells transfected with Flag-ROCK2(WT or K1007R); ROCK2 found with it by western blot. For orientation: Immunoblotting shows a protein as a band on a membrane.

B1: Flag-ROCK2(K1007R) (enzyme, UniProt O75116 1-1388)
chain: MSRPPPTGKMPGAPETAPGDGAGASRQRKLEALIRDPRSPINVESLLDGLNSLVLDLDFPALRKNKNIDNFLNRYEKIVKKIRGLQMKAEDYDVVKVIGRGAFGEVQLVRHKASQKVYAMKLLSKFEMIKRSDSAFFWEERDIMAFANSPWVVQLFYAFQDDRYLYMVMEYMPGGDLVNLMSNYDVPEKWAKFYTAEVVLALDAIHSMGLIHRDVKPDNMLLDKHGHLKLADFGTCMKMDETGMVHCDTAVGTPDYISPEVLKSQGGDGFYGRECDWWSVGVFLYEMLVGDTPFYADSLVGTYSKIMDHKNSLCFPEDAEISKHAKNLICAFLTDREVRLGRNGVEEIRQHPFFKNDQWHWDNIRETAAPVVPELSSDIDSSNFDDIEDDKGDVETFPIPKAFVGNQLPFIGFTYYRENLLLSDSPSCRETDSIQSRKNEESQEIQKKLYTLEEHLSNEMQAKEELEQKCKSVNTRLEKTAKELEEEITLRKSVESALRQLEREKALLQHKNAEYQRKADHEADKKRNLENDVNSLKDQLEDLKKRNQNSQISTEKVNQLQRQLDETNALLRTESDTAARLRKTQAESSKQIQQLESNNRDLQDKNCLLETAKLKLEKEFINLQSALESERRDRTHGSEIINDLQGRICGLEEDLKNGKILLAKVELEKRQLQERFTDLEKEKSNMEIDMTYQLKVIQQSLEQEEAEHKATKARLADKNKIYESIEEAKSEAMKEMEKKLLEERTLKQKVENLLLEAEKRCSLLDCDLKQSQQKINELLKQKDVLNEDVRNLTLKIEQETQKRCLTQNDLKMQTQQVNTLKMSEKQLKQENNHLMEMKMNLEKQNAELRKERQDADGQMKELQDQLEAEQYFSTLYKTQVRELKEECEEKTKLGKELQQKKQELQDERDSLAAQLEITLTKADSEQLARSIAEEQYSDLEKEKIMKELEIKEMMARHKQELTEKDATIASLEETNRTLTSDVANLANEKEELNNKLKDVQEQLSRLRDEEISAAAIKAQFEKQLLTERTLKTQAVNKLAEIMNRKEPVKRGNDTDVRRKEKENRKLHMELKSEREKLTQQMIKYQKELNEMQAQIAEESQIRIELQMTLDSKDSDIEQLRSQLQALHIGLDSSSIGSGPGDAEADDGFPESRLEGWLSLPVRNNTKKFGWVKKYVIVSSKKILFYDSEQDKEQSNPYMVLDIDKLFHVRPVTQTDVYRADAKEIPRIFQILYANEGESKKEQEFPVEPVGEKSNYICHKGHEFIPTLYHFPTNCEACMKPLWHMFKPPPALECRRCHIKCHKDHMDKKEEIIAPCKVYYDISTAKNLLLLANSTEEQQKWVSRLVKKIPKKPPAPDPFARSSPRTSMKIQQNQSIRRPSRQLAPNKPS
B1: the binding entry is reported as “binds”.

Values taken from publication PMC10314948.
